These are yes or no findings as the source states them, for the method shown. In cells and extracts the contact can be indirect. Some binding calls cover weakened binding; strength is not graded here. Tags and fused reporters may be left off the sequences shown.
Target: T1, Paa1-L-YFP (S. pombe) (UniProt Q9UT08)
T1 sequence: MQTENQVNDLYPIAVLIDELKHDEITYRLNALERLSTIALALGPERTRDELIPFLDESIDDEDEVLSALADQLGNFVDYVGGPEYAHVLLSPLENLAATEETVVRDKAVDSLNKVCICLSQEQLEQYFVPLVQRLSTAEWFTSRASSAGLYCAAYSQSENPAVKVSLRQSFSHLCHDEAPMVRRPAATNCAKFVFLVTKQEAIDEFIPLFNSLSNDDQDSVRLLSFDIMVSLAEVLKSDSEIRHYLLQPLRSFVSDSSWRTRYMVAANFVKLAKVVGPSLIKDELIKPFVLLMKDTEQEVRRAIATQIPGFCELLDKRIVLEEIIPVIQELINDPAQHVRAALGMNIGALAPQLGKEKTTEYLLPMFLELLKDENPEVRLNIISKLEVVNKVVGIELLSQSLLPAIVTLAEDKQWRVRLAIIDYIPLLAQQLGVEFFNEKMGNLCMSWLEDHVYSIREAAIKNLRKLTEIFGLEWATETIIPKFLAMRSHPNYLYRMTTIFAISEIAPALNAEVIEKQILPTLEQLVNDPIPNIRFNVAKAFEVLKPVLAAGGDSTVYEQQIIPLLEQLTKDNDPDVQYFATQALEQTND
Assay: co-IP; extracts of cells expressing paa1:L:YFP and trm112:L:HA, nitrogen-rich or nitrogen-depleted media, immunoprecipitated with anti-GFP beads, probed with anti-GFP and anti-HA

B1: Trm112-L-HA (protein, UniProt Q09723 1-126)
chain: MKLLTANFLNCSNKKCTSSPEAFPLDVVDAKLAIQQLELKPEFLIGIMPRIDWNALLKTTRQLGNYSLPDEKPDLVDDSDEVLLKSLHNVLLETEITEGKMVCGNCGHVYPIFEGIPNMLLSESEI
For B1, the binding was “binds”.

From paper PMC10723533
